Results on 16 molecules are retold here after US20200376034A1.

Amino acid sequences for entries named in this document (tags omitted). A change or cut given only in a name is not applied to a line headed by its entry.
UniProt P20138: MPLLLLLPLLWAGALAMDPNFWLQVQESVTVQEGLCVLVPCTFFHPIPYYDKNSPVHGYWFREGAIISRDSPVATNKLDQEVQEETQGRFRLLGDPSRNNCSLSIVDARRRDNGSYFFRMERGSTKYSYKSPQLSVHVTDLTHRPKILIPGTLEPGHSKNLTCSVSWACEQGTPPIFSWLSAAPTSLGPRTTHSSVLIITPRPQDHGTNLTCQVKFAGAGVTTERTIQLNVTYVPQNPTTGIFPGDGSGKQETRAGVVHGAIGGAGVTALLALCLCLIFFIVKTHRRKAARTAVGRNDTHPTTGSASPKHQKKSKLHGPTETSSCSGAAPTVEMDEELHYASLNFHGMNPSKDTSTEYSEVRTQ

Residue numbers refer to the chain shown, from its start. Results are given in words; binding and its absence hold for the method and conditions named. Some binding calls cover weakened binding; strength is not graded here.

The target of assay [1] is human CD33 expressed on cells (human) (UniProt P20138). Kind of assay: flow cytometry on Molm-13 cells, fluorophore-conjugated anti-human IgG secondary, MFI as fold over background (FOB). (In general: In flow cytometry, cells or beads pass a laser one at a time.)
For assay [2], the target named is V domain of human CD33 (human) (UniProt P20138). Kind of assay: SPR, Fab captured, 37 C.

B1: A40.I07 (bispecific antibody)
NKG2D-binding arm, heavy chain variable domain: QVQLQQWGAGLLKPSETLSLTCAVYGGSFSGYYWSWIRQPPGKGLEWIGEIDHSGSTNYNPSLKSRVTISVDTSKNQFSLKLSSVTAADTAVYYCARARGPWSFDPWGQGTLVTVSS
NKG2D-binding arm, light chain variable domain: DIQMTQSPSTLSASVGDRVTITCRASQSIGSWLAWYQQKPGKAPKLLIYKASSLESGVPSRFSGSGSGTEFTLTISSLQPDDFATYYCQQYHSFYTFGGGTKVEIK
CD33-binding arm, heavy chain variable domain: EVQLVESGGGLVQPGGSLRLSCAASGFTFGSYWMSWVRQAPGKGLEWVATIKQDGSEKSYVDSVKGRFTISRDNAKNSLYLQMNSLRAEDTAVYYCARPLNAGELDVWGQGTMVTVSS
CD33-binding arm, light chain variable domain: DIQMTQSPSTLSASVGDRVTITCRASQSISSWLAWYQQKPGKAPKLLIYEASSLESGVPSRFSGSGSGTEFTLTISSLQPDDFATYYCQQSQSYPPITFGGGTKVEIK
Consider B1, for which, in assay [1], the binding entry was “binds”.

B2: A49.I07 (bispecific antibody)
NKG2D-binding arm, heavy chain variable domain: EVQLVESGGGLVKPGGSLRLSCAASGFTFSSYSMNWVRQAPGKGLEWVSSISSSSSYIYYADSVKGRFTISRDNAKNSLYLQMNSLRAEDTAVYYCARGAPMGAAAGWFDPWGQGTLVTVSS
NKG2D-binding arm, light chain variable domain: DIQMTQSPSSVSASVGDRVTITCRASQGISSWLAWYQQKPGKAPKLLIYAASSLQSGVPSRFSGSGSGTDFTLTISSLQPEDFATYYCQQGVSFPRTFGGGTKVEIK
CD33-binding arm, heavy chain variable domain: B1 CD33-binding arm, heavy chain variable domain
CD33-binding arm, light chain variable domain: B1 CD33-binding arm, light chain variable domain
Consider B2, for which the binding entry in assay [1] was “binds”.

B3: ADI-11809 Fab (Fab, V domains shown)
VH: B1 CD33-binding arm, heavy chain variable domain with G30P, Q53R, S59G
VL: B1 CD33-binding arm, light chain variable domain
For B3, the binding result in assay [2] was “binds”.

B4: ADI-10177 Fab (Fab, V domains shown)
VH: B1 CD33-binding arm, heavy chain variable domain with G30S, T50N, S59Y
VL: DIQMTQSPSTLSASVGDRVTITCRASQSISSWLAWYQQKPGKAPKLLIYEASSLESGVPSRFSGSGSGTEFTLTISSLQPDDFATYYCQQLESYPLTFGGGTKVEIK
Consider B4, for which, in assay [2], the binding result is given as “binds”.

B5: A40.H76 (bispecific antibody)
NKG2D-binding arm, heavy chain variable domain: B1 NKG2D-binding arm, heavy chain variable domain
NKG2D-binding arm, light chain variable domain: B1 NKG2D-binding arm, light chain variable domain
CD33-binding arm, heavy chain variable domain: EVQLLESGGGLVQPGGSLRLSCAASGFTFSKYTMSWVRQAPGKGLEWVSAIVGSGESTYFADSVKGRFTISRDNSKNTLYLQMNSLRAEDTAVYYCAREGGPYYDSSGYFVYYGMDVWGQGTTVTVSS
CD33-binding arm, light chain variable domain: B1 NKG2D-binding arm, light chain variable domain with G30S, H92D, S93D, F94L, Y95P
B5: the binding result in assay [1] is “binds”.

B6: F47.G59 (bispecific antibody)
NKG2D-binding arm, heavy chain variable domain: B1 NKG2D-binding arm, heavy chain variable domain
NKG2D-binding arm, light chain variable domain: B1 NKG2D-binding arm, light chain variable domain with G30S, H92D, S93T, Y95I
CD33-binding arm, heavy chain variable domain: EVQLVESGGGLVQPGGSLRLSCAASGFTFSSYGMSWVRQAPGKGLEWVANIKQDGSEKYYVDSVKGRFTISRDNAKNSLYLQMNSLRAEDTAVYYCAREGGPYYDSSGYFVYYGMDVWGQGTTVTVSS
CD33-binding arm, light chain variable domain: B1 NKG2D-binding arm, light chain variable domain with G30S, K50D, H92E, Y95P
B6: the binding result in assay [1] is “binds”.

B7: A49.H76 (bispecific antibody)
NKG2D-binding arm, heavy chain variable domain: B2 NKG2D-binding arm, heavy chain variable domain
NKG2D-binding arm, light chain variable domain: B2 NKG2D-binding arm, light chain variable domain
CD33-binding arm, heavy chain variable domain: B5 CD33-binding arm, heavy chain variable domain
CD33-binding arm, light chain variable domain: B1 NKG2D-binding arm, light chain variable domain with G30S, H92D, S93D, F94L, Y95P
With B7, the binding result in assay [1] is listed as “binds”.

B8: C26.G59 (bispecific antibody)
NKG2D-binding arm, heavy chain variable domain: B1 NKG2D-binding arm, heavy chain variable domain
NKG2D-binding arm, light chain variable domain: B4 VL with E50K, L91Y, E92G, Y94F, L96I
CD33-binding arm, heavy chain variable domain: B6 CD33-binding arm, heavy chain variable domain
CD33-binding arm, light chain variable domain: B1 NKG2D-binding arm, light chain variable domain with G30S, K50D, H92E, Y95P
In the case of B8, the binding result in assay [1] is reported as “binds”.

B9: C26.H76 (bispecific antibody)
NKG2D-binding arm, heavy chain variable domain: B1 NKG2D-binding arm, heavy chain variable domain
NKG2D-binding arm, light chain variable domain: B4 VL with E50K, L91Y, E92G, Y94F, L96I
CD33-binding arm, heavy chain variable domain: B5 CD33-binding arm, heavy chain variable domain
CD33-binding arm, light chain variable domain: B1 NKG2D-binding arm, light chain variable domain with G30S, H92D, S93D, F94L, Y95P
B9: the binding result in assay [1] is listed as “binds”.

B10: C26.I07 (bispecific antibody)
NKG2D-binding arm, heavy chain variable domain: B1 NKG2D-binding arm, heavy chain variable domain
NKG2D-binding arm, light chain variable domain: B4 VL with E50K, L91Y, E92G, Y94F, L96I
CD33-binding arm, heavy chain variable domain: B1 CD33-binding arm, heavy chain variable domain
CD33-binding arm, light chain variable domain: B1 CD33-binding arm, light chain variable domain
As to B10, the binding result in assay [1] was “binds”.

B11: F47.I07 (bispecific antibody)
NKG2D-binding arm, heavy chain variable domain: B1 NKG2D-binding arm, heavy chain variable domain
NKG2D-binding arm, light chain variable domain: B1 NKG2D-binding arm, light chain variable domain with G30S, H92D, S93T, Y95I
CD33-binding arm, heavy chain variable domain: B1 CD33-binding arm, heavy chain variable domain
CD33-binding arm, light chain variable domain: B1 CD33-binding arm, light chain variable domain
Regarding B11, the binding entry in assay [1] is on record as “binds”.

B12: A49.G59 (bispecific antibody)
NKG2D-binding arm, heavy chain variable domain: B2 NKG2D-binding arm, heavy chain variable domain
NKG2D-binding arm, light chain variable domain: B2 NKG2D-binding arm, light chain variable domain
CD33-binding arm, heavy chain variable domain: B6 CD33-binding arm, heavy chain variable domain
CD33-binding arm, light chain variable domain: B1 NKG2D-binding arm, light chain variable domain with G30S, K50D, H92E, Y95P
As for B12, in assay [1], the binding entry is on record as “binds”.

B13: ADI-11819 Fab (Fab, V domains shown)
VH: EVQLVESGGGLVKPGGSLRLSCAASGFTFSSYAMSWVRQAPGKGLEWVSSISSSSEGIYYADSVKGRFTISRDNAKNSLYLQMNSLRAEDTAVYYCAREGGPYYDSSGYFVYYGMDVWGQGTTVTVSS
VL: B1 NKG2D-binding arm, light chain variable domain with Q27N, G30S, K50E, L54T, E55K, H92D, S93D, F94L, Y95P
For the molecule B13, the binding entry in assay [2] was “binds”.

B14: F47.H76 (bispecific antibody)
NKG2D-binding arm, heavy chain variable domain: B1 NKG2D-binding arm, heavy chain variable domain
NKG2D-binding arm, light chain variable domain: B1 NKG2D-binding arm, light chain variable domain with G30S, H92D, S93T, Y95I
CD33-binding arm, heavy chain variable domain: B5 CD33-binding arm, heavy chain variable domain
CD33-binding arm, light chain variable domain: B1 NKG2D-binding arm, light chain variable domain with G30S, H92D, S93D, F94L, Y95P
For B14, the binding entry in assay [1] is given as “binds”.

B15: A40.G59 (bispecific antibody)
NKG2D-binding arm, heavy chain variable domain: B1 NKG2D-binding arm, heavy chain variable domain
NKG2D-binding arm, light chain variable domain: B1 NKG2D-binding arm, light chain variable domain
CD33-binding arm, heavy chain variable domain: B6 CD33-binding arm, heavy chain variable domain
CD33-binding arm, light chain variable domain: B1 NKG2D-binding arm, light chain variable domain with G30S, K50D, H92E, Y95P
In the case of B15, the binding result in assay [1] is “binds”.

B16: ADI-10157 Fab (Fab, V domains shown)
VH: QVQLQESGPGLVKPSETLSLTCTVSGGSISSYYWSWIRQPPGKGLEWIGSIYYSGSTNYNPSLKSRVTISVDTSKNQFSLKLSSVTAADTAVYYCARVGGVYSTIETYGMDVWGQGTTVTVSS
VL: EIVMTQSPATLSVSPGERATLSCRASQSVSSNLAWYQQKPGQAPRLLIYGASTRATGIPARFSGSGSGTEFTLTISSLQSEDFAVYYCQQYTVYPPTFGGGTKVEIK
For the molecule B16, the binding result in assay [2] is “binds”.
